In PubChem BioAssay AID228 (DTP/NCI, 2004):
The list shows only some results of the screen, not a fair sample: its compounds were picked by chemical class. Not every dose and run of a compound is shown. T/C: endpoint of the treated group in % of that of the vehicle group. Some T/C values are marked as having no survivor count here; that says nothing about deaths at the dose. Schedules are NCI's codes, taken here to give the interval after Q, in days (D) or hours (H), and the number of doses after X. Some entries were tested several times; the results are listed from low to high.

System: BDF1 mice, Friend leukemia sc, tumor weight T/C
Assay: NCI In Vivo Anticancer Drug Screen. Data for tumor model Friend Virus Leukemia (Solid) (subcutaneous) in B6D2F1 (BDF1) mice
Conditions: T/C endpoint: mean tumor weight, schedule: Q01DX011 (ip), vehicle: carboxymethylcellulose (CMC), evaluation day not shown, higher T/C = larger tumour
Method: The antitumor activity of compounds was measured in mice bearing transplantable tumors. Survival or tumor size were measured and the results are expressed as the measurement made in the treated group (T) divided by the measurement made in the vehicle treated control group (C). The tumor model used in this assay is Friend Virus Leukemia (Solid) (subcutaneous) in B6D2F1 (BDF1) mice

`CN(CCCl)CCCl` was tested, and the T/C (dose: 0.04 mg/kg/injection) was 84 % of control [survivor count not shown], the T/C (dose: 0.07 mg/kg/injection) was 117 % of control [survivor count not shown] and the T/C (dose: 0.12 mg/kg/injection) was 103 % of control [survivor count not shown]. For the same compound, the T/C (dose: 0.15 mg/kg/injection) was 103 % of control [survivor count not shown], the T/C (dose: 0.25 mg/kg/injection) was 35 [survivor count not shown], 89 [survivor count not shown], 121 [survivor count not shown], 161 % of control [survivor count not shown] and the T/C (dose: 0.3 mg/kg/injection) was 85 % of control [survivor count not shown]. For the same compound, the T/C (dose: 0.5 mg/kg/injection) was 29 [survivor count not shown], 42 [survivor count not shown], 97 [survivor count not shown], 109 % of control [survivor count not shown].
